Assay results reported in PubChem BioAssay AID248 (DTP/NCI, 2004).
The list does not hold the whole screen: it gathers tests that were run many times, whatever their T/C, doses with no T/C, and many T/C values between a quarter and a half above the control. Other doses and runs of a compound stand elsewhere. T/C: endpoint of the treated group in % of that of the vehicle group. Some doses have a count of surviving animals in place of a T/C: the source holds a T/C of zero for them, seemingly a mark for toxic or unscored doses. Some doses without a T/C left all or most animals alive at the check, yet need not have been tolerated: survival well below the control is almost never listed, so the zero probably covers shortened survival too. Survivors were counted at the toxicity check, usually on the fifth day, unless a day is given; later deaths do not show. Schedule codes are those of the source, read here as Q, the interval in days (D) or hours (H), X, the number of doses. Some doses were run more than once; their values stand side by side, smallest first. Some schedule codes hold Z or #, which are not explained here. Where survival is the endpoint, this PubChem deposit counts one and a half times the control or more as active, and values a quarter to a half above the control carry no call in these data; other NCI protocols may use other cut-offs. Some T/C values are followed by the survivors on the day toxicity was checked, most often the fifth; without a count, all were alive then.

System: L1210 leukemia ip in BDF1 mice, survival T/C
Assay: NCI In Vivo Anticancer Drug Screen. Data for tumor model L1210 Leukemia (intraperitoneal) in B6D2F1 (BDF1) mice
Conditions: T/C endpoint: mean survival time, higher T/C = longer survival
[1] = dose: 100.0 mg/kg/injection, schedule: Q04DX003 (ip), vehicle: saline
[2] = dose: 200.0 mg/kg/injection, schedule: Q04DX003 (ip), vehicle: saline
[3] = dose: 400.0 mg/kg/injection, schedule: Q04DX003 (ip), vehicle: saline
[4] = dose: 100.0 mg/kg/injection, schedule: Q01DX009 (ip), vehicle: saline
[5] = dose: 200.0 mg/kg/injection, schedule: Q01DX009 (ip), vehicle: saline

O=C(Nc1ccc(C2=NCCCN2)cc1)c1ccc(NC(=O)c2ccc(C3=NCCCN3)cc2)cc1
T/C (dose: 1.0 mg/kg/injection, schedule: Q01DX Z (ip), vehicle: carboxymethylcellulose (CMC)): 127 % of control
T/C (dose: 1.88 mg/kg/injection, schedule: Q01DX Z (ip), vehicle: saline): 143 % of control
T/C (dose: 2.0 mg/kg/injection, schedule: Q01DX010 (ip), vehicle: other): 145 % of control
T/C (dose: 2.0 mg/kg/injection, schedule: Q01DX Z (sc), vehicle: saline): 141 % of control
T/C (dose: 10.0 mg/kg/injection, schedule: Q01DX001 (im), vehicle: steroid suspending solution): 135 % of control
T/C (dose: 14.0 mg/kg/injection, schedule: Q01DX001 (ip), vehicle: carboxymethylcellulose (CMC)): 141 % of control
T/C (dose: 14.0 mg/kg/injection, schedule: Q01DX001 (ip), vehicle: saline): 134 and 135 % of control
survivor count (dose: 15.0 mg/kg/injection, schedule: Q01DX Z (ip), vehicle: other): 3 of 6
survivor count (dose: 20.0 mg/kg/injection, schedule: Q01DX010 (sc), vehicle: olive oil, sesame oil, peanut oil): 5 of 6
T/C (dose: 21.0 mg/kg/injection, schedule: Q01DX001 (ip), vehicle: other): 149 % of control
survivor count (dose: 30.0 mg/kg/injection, schedule: Q01DX Z (ip), vehicle: other): 0 of 6
T/C (dose: 32.0 mg/kg/injection, schedule: Q01DX001 (ip), vehicle: saline): 146 % of control
survivor count (dose: 32.0 mg/kg/injection, schedule: Q01DX010 (ip), vehicle: other): 0 of 6
survivor count (dose: 32.0 mg/kg/injection, schedule: Q01DX Z (sc), vehicle: carboxymethylcellulose (CMC)): 6 of 6
survivor count (dose: 40.0 mg/kg/injection, schedule: Q01DX010 (sc), vehicle: olive oil, sesame oil, peanut oil): 5 of 10 and 5 of 6
survivor count (dose: 40.0 mg/kg/injection, schedule: Q01DX010 (sc), vehicle: saline): 5 of 6
survivor count (dose: 48.0 mg/kg/injection, schedule: Q01DX001 (ip), vehicle: other): 5 of 10
survivor count (dose: 60.0 mg/kg/injection, schedule: Q01DX Z (ip), vehicle: other): 0 of 6
survivor count (dose: 64.0 mg/kg/injection, schedule: Q01DX Z (sc), vehicle: carboxymethylcellulose (CMC)): 1 of 6
survivor count (dose: 72.0 mg/kg/injection, schedule: Q01DX001 (ip), vehicle: carboxymethylcellulose (CMC)): 1 of 10
survivor count (dose: 72.0 mg/kg/injection, schedule: Q01DX001 (ip), vehicle: other): 1 of 10
survivor count (dose: 80.0 mg/kg/injection, schedule: Q01DX001 (im), vehicle: steroid suspending solution): 3 of 6
survivor count (dose: 80.0 mg/kg/injection, schedule: Q01DX010 (sc), vehicle: olive oil, sesame oil, peanut oil): 1 of 6 and 6 of 6
survivor count (dose: 80.0 mg/kg/injection, schedule: Q01DX010 (sc), vehicle: saline): 4 of 6
survivor count (dose: 80.0 mg/kg/injection, schedule: Q02DX004 (im), vehicle: olive oil, sesame oil, peanut oil): 6 of 6
survivor count (dose: 120.0 mg/kg/injection, schedule: Q01DX Z (ip), vehicle: other): 0 of 6
survivor count (dose: 128.0 mg/kg/injection, schedule: Q01DX Z (sc), vehicle: carboxymethylcellulose (CMC)): 0 of 6
T/C (dose: 300.0 mg/kg/injection, schedule: Q#A X Z (oral), vehicle: carboxymethylcellulose (CMC)): 137 % of control
T/C (dose: 303.5 mg/kg/injection, schedule: Q#A X Z (oral), vehicle: carboxymethylcellulose (CMC)): 127 % of control
T/C (dose: 450.0 mg/kg/injection, schedule: Q#A X Z (oral), vehicle: carboxymethylcellulose (CMC)): 126 % of control
T/C (dose: 500.0 mg/kg/injection, schedule: Q01DX Z (oral), vehicle: carboxymethylcellulose (CMC)): 136 % of control
T/C (dose: 600.0 mg/kg/injection, schedule: Q01DX Z (oral), vehicle: water): 131 % of control
survivor count (dose: 607.0 mg/kg/injection, schedule: Q01DX Z (oral), vehicle: carboxymethylcellulose (CMC)): 3 of 5
T/C (dose: 900.0 mg/kg/injection, schedule: Q01DX Z (oral), vehicle: water): 136 % of control
T/C (dose: 1800.0 mg/kg/injection, schedule: Q03DX Z (oral), vehicle: carboxymethylcellulose (CMC)): 140 % of control
T/C (dose: 4000.0 mg/kg/injection, schedule: Q07DX Z (oral), vehicle: carboxymethylcellulose (CMC)): 130 % of control [5 of 6 alive]

COc1ccc(OC)c(NC(=O)Sc2ccccc2O)c1
survivor count (dose: 200.0 mg/kg/injection, schedule: Q01DX009 (ip), vehicle: Klucel (hydroxypropylcellulose) (HPC)): 4 of 6
survivor count (dose: 400.0 mg/kg/injection, schedule: Q01DX009 (ip), vehicle: Klucel (hydroxypropylcellulose) (HPC)): 1 of 6

O=C(CCN1CC1)OCCCCOC(=O)CCN1CC1
T/C (dose: 10.0 mg/kg/injection, schedule: Q01DX009 (ip), vehicle: saline): 128 % of control
survivor count (dose: 40.0 mg/kg/injection, schedule: Q01DX009 (ip), vehicle: saline): 2 of 6
survivor count (dose: 80.0 mg/kg/injection, schedule: Q01DX009 (ip), vehicle: saline): 2 of 6
survivor count [1]: 5 of 6
survivor count [2]: 0 of 6
survivor count [3]: 0 of 6

COc1ccc2c(C(=O)N(CCCl)CCCl)cc3cc(OC)c(OC)cc3c2c1
survivor count [1]: 4 of 4

CC1(C)N=C(N)N=C(N)N1c1ccc(CNC(=O)Nc2cccc(S(=O)(=O)F)c2)cc1
T/C (dose: 25.0 mg/kg/injection, schedule: Q01DX009 (ip), vehicle: saline): 135 % of control
T/C (dose: 50.0 mg/kg/injection, schedule: Q01DX009 (ip), vehicle: saline): 142 % of control
T/C [4]: 133 % of control
survivor count [4]: 6 of 6
T/C (dose: 132.0 mg/kg/injection, schedule: Q04DX003 (ip), vehicle: saline): 130 % of control
T/C [5]: 132 % of control
survivor count [5]: 3 of 5
T/C [2]: 125 % of control
T/C (dose: 300.0 mg/kg/injection, schedule: Q04DX003 (ip), vehicle: saline): 126 % of control [5 of 6 alive]
survivor count (dose: 400.0 mg/kg/injection, schedule: Q01DX009 (ip), vehicle: saline): 2 of 6 and 6 of 6

SCc1ccccn1
survivor count (dose: 600.0 mg/kg/injection, schedule: Q01DX015 (ip), vehicle: saline): 0 of 6
survivor count (dose: 900.0 mg/kg/injection, schedule: Q01DX015 (ip), vehicle: saline): 0 of 6

Cn1cnc(N)c1C(N)=S
survivor count (dose: 100.0 mg/kg/injection, schedule: Q01DX009 (ip), vehicle: Klucel (hydroxypropylcellulose) (HPC)): 3 of 6

O=C(Nc1ccc(C(=O)O)cc1)Nc1cc(C(F)(F)F)ccc1Cl
survivor count (dose: 400.0 mg/kg/injection, schedule: Q01DX009 (ip), vehicle: carboxymethylcellulose (CMC)): 3 of 3

O=C1OC(=C(Br)Br)C2C3C=CC(C3)C12 (configuration not stated)
survivor count [3]: 2 of 3

O=C(Nc1ccc([N+](=O)[O-])cc1)Oc1c(Cl)cc(Cl)c(Cl)c1[N+](=O)[O-]
survivor count (dose: 200.0 mg/kg/injection, schedule: Q04DX002 (ip), vehicle: Klucel (hydroxypropylcellulose) (HPC)): 0 of 3
survivor count (dose: 400.0 mg/kg/injection, schedule: Q04DX002 (ip), vehicle: Klucel (hydroxypropylcellulose) (HPC)): 0 of 3
